Source: paper PMC7665192, “A natriuretic peptide from Arabidopsis thaliana (AtPNP-A) can modulate catalase 2 activity” (Scientific Reports, 2020)
Results are given in words; binding and its absence hold for the method and conditions named. In cells and extracts the contact can be indirect. Some results given as binding are weak or reduced against the parent protein; the word gives no strength.

Target: T1, NeYFP-CAT2 (A. thaliana) (UniProt P25819)
T1 sequence: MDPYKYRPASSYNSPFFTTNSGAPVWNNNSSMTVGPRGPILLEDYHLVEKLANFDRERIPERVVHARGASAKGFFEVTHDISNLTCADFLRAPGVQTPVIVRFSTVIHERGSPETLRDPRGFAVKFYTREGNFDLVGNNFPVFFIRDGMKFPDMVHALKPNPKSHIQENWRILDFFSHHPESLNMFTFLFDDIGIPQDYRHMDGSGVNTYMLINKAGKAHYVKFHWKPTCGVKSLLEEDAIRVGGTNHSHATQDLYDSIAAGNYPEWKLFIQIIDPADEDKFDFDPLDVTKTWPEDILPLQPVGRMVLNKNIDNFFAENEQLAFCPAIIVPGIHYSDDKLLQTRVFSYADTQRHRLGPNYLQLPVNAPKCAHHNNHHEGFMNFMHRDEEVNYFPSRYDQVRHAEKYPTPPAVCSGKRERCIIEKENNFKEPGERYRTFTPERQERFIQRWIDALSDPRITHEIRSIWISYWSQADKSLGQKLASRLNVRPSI
Test: split reporter; BiFC with NeYFP and CeYFP fusions driven by the 35S promoter, tobacco leaves infiltrated with Agrobacterium, protoplasts imaged after 3 days; BiFC/red fluorescence in chloroplasts

binding: binds
B1: CeYFP-AtPNP-A (protein, UniProt Q9ZV52 26-130)
chain: AQGKAVYYDPPYTRSACYGTQRETLVVGVKNNLWQNGRACGRRYRVRCIGATYNFDRACTGRTVDVKVVDFCREPCNGDLNLSRDAFRVIANTDAGNIRVVYTPI
